Source: PubChem BioAssay AID1224827 (NIAID, 2016)
The whole screen tested about 3,800 reagents; this is a part drawn at random. Of all reagents, about 2,200 (57%) are marked active. 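Active means a strong reporter change in either direction; calls are per siRNA, not per gene; qiagen siRNAs gave weaker effects.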 Unmarked entries are inactive. Reagents against one gene are numbered here. Reagent sequences are not shown.

- Aim: 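Identify regulators of the macrophage TNF-alpha response to bacterial LPS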 (follow-up of hits)
- System: RAW264.7 G9 mouse macrophage reporter clone
- Knock-down reagent: single siRNA against mouse genes, 100 nM siRNA
- Timing: siRNA for 2 days, then LPS about 16 h
- Challenge: bacterial lipopolysaccharide (LPS), 10 ng/ml, cells fixed after overnight (about 16 h) stimulation
- Measurement: 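Imaged nuclear TNF reporter intensity, background removed, scaled per plate and to non-targeting control wells, as z-scores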
- Direction: TNF reporter z-score, mean and TNF reporter z-score: higher = stronger Tnf promoter reporter signal; gene median z, three same-vendor siRNAs: higher = stronger Tnf reporter signal for the gene
- Active means: 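An siRNA is called active when its mean z-score over replicates is at least +2 or at most -2; control wells get no call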

no.	gene symbol	reagent no.	TNF reporter z-score, mean	gene median z, three same-vendor siRNAs	TNF reporter z-score, repeat 1	TNF reporter z-score, repeat 2
1	Sox11 (GeneID 20666)	1	-1.8	-4.05	-1.9	-1.71
2	Sox11 (GeneID 20666)	2	-4.24 (active)	-4.05	-3.8	-4.67
3	Sox11 (GeneID 20666)	3	-4.79 (active)	-4.05	-5.28	-4.3
4	Sox11 (GeneID 20666)	4	3.72 (active)	1.92	6.89	0.551
5	Sox11 (GeneID 20666)	5	2.78 (active)	1.92	5.06	0.501
6	Sox11 (GeneID 20666)	6	1.09	1.92	3.29	-1.11
7	Efna5 (GeneID 13640)	1	-3.89 (active)	-4.49	-4.23	-3.54
8	Efna5 (GeneID 13640)	2	-4.69 (active)	-4.49	-4.5	-4.89
9	Efna5 (GeneID 13640)	3	-4.79 (active)	-4.49	-4.48	-5.1
10	Efna5 (GeneID 13640)	4	1.17	0.506	2.29	0.047
11	Efna5 (GeneID 13640)	5	0.185	0.506	0.966	-0.596
12	Efna5 (GeneID 13640)	6	0.0686	0.506	1.11	-0.971
13	Ssh3 (GeneID 245857)	1	1.14	-2.86	-0.331	2.62
14	Ssh3 (GeneID 245857)	2	-2.86 (active)	-2.86	-2.4	-3.33
15	Ssh3 (GeneID 245857)	3	-5.05 (active)	-2.86	-4.71	-5.4
16	Ssh3 (GeneID 245857)	4	-0.127	-1.78	1.82	-2.07
17	Ssh3 (GeneID 245857)	5	-1.79	-1.78	-0.678	-2.91
18	Ssh3 (GeneID 245857)	6	-2.29 (active)	-1.78	-1.49	-3.08
19	Chchd1 (GeneID 66121)	1	-0.772	-4.02	-1.8	0.257
20	Chchd1 (GeneID 66121)	2	-4.03 (active)	-4.02	-3.62	-4.44
21	Chchd1 (GeneID 66121)	3	-4.81 (active)	-4.02	-4.42	-5.2
22	Chchd1 (GeneID 66121)	4	4.38 (active)	1.09	7.51	1.25
23	Chchd1 (GeneID 66121)	5	0.998	1.09	1.54	0.455
24	Chchd1 (GeneID 66121)	6	-0.87	1.09	0.929	-2.67

In a second layout: results already given.
{"gene symbol":"Ssh3 (GeneID 245857)","reagent no.":1,"TNF reporter z-score, mean":1.14,"gene median z, three same-vendor siRNAs":-2.86,"TNF reporter z-score, repeat 1":-0.331,"TNF reporter z-score, repeat 2":2.62}
{"gene symbol":"Ssh3 (GeneID 245857)","reagent no.":2,"TNF reporter z-score, mean":"-2.86 (active)","gene median z, three same-vendor siRNAs":-2.86,"TNF reporter z-score, repeat 1":-2.4,"TNF reporter z-score, repeat 2":-3.33}
{"gene symbol":"Ssh3 (GeneID 245857)","reagent no.":3,"TNF reporter z-score, mean":"-5.05 (active)","gene median z, three same-vendor siRNAs":-2.86,"TNF reporter z-score, repeat 1":-4.71,"TNF reporter z-score, repeat 2":-5.4}
{"gene symbol":"Ssh3 (GeneID 245857)","reagent no.":4,"TNF reporter z-score, mean":-0.127,"gene median z, three same-vendor siRNAs":-1.78,"TNF reporter z-score, repeat 1":1.82,"TNF reporter z-score, repeat 2":-2.07}
{"gene symbol":"Ssh3 (GeneID 245857)","reagent no.":5,"TNF reporter z-score, mean":-1.79,"gene median z, three same-vendor siRNAs":-1.78,"TNF reporter z-score, repeat 1":-0.678,"TNF reporter z-score, repeat 2":-2.91}
{"gene symbol":"Ssh3 (GeneID 245857)","reagent no.":6,"TNF reporter z-score, mean":"-2.29 (active)","gene median z, three same-vendor siRNAs":-1.78,"TNF reporter z-score, repeat 1":-1.49,"TNF reporter z-score, repeat 2":-3.08}

The results go on:
no.	gene symbol	reagent no.	TNF reporter z-score, mean	gene median z, three same-vendor siRNAs	TNF reporter z-score, repeat 1	TNF reporter z-score, repeat 2
25	Gabra5 (GeneID 110886)	1	9.09 (active)	-2.11	5.55	12.6
26	Gabra5 (GeneID 110886)	2	-2.35 (active)	-2.11	-3.06	-1.65
27	Gabra5 (GeneID 110886)	3	-2.93 (active)	-2.11	-2.57	-3.3
28	Gabra5 (GeneID 110886)	4	1.66	-0.228	3.57	-0.258
29	Gabra5 (GeneID 110886)	5	0.686	-0.228	1.67	-0.3
30	Gabra5 (GeneID 110886)	6	-0.966	-0.228	-0.198	-1.73
31	Trim2 (GeneID 80890)	1	0.76	-3.74	0.174	1.35
32	Trim2 (GeneID 80890)	2	-3.74 (active)	-3.74	-3.9	-3.57
33	Trim2 (GeneID 80890)	3	-5.95 (active)	-3.74	-5.69	-6.2
34	Trim2 (GeneID 80890)	4	3.35 (active)	-0.505	6.25	0.455
35	Trim2 (GeneID 80890)	5	-0.00315	-0.505	1.46	-1.47
36	Trim2 (GeneID 80890)	6	-2.24 (active)	-0.505	-1.89	-2.59
37	Tas2r108 (GeneID 57253)	1	0.694	-0.51	0.574	0.813
38	Tas2r108 (GeneID 57253)	2	0.564	-0.51	-1.59	2.72
39	Tas2r108 (GeneID 57253)	3	-3.47 (active)	-0.51	-2.52	-4.43
40	Tas2r108 (GeneID 57253)	4	6.64 (active)	-0.846	11.5	1.78
41	Tas2r108 (GeneID 57253)	5	-1.02	-0.846	0.765	-2.8
42	Tas2r108 (GeneID 57253)	6	-2.85 (active)	-0.846	-2.46	-3.25
43	Pofut1 (GeneID 140484)	1	-0.0782	-3.89	-0.503	0.346
44	Pofut1 (GeneID 140484)	2	-3.89 (active)	-3.89	-4.21	-3.57
45	Pofut1 (GeneID 140484)	3	-5.9 (active)	-3.89	-5.78	-6.01
46	Pofut1 (GeneID 140484)	4	1.57	-2.22	2.95	0.178
47	Pofut1 (GeneID 140484)	5	-2.22 (active)	-2.22	-1.85	-2.59
48	Pofut1 (GeneID 140484)	6	-4.79 (active)	-2.22	-5.79	-3.8
49	Ankmy2 (GeneID 217473)	1	1.38	-4.29	1.65	1.11
50	Ankmy2 (GeneID 217473)	2	-4.29 (active)	-4.29	-4	-4.58
51	Ankmy2 (GeneID 217473)	3	-5.08 (active)	-4.29	-5.11	-5.05
52	Ankmy2 (GeneID 217473)	4	4.36 (active)	1.35	6.44	2.27
53	Ankmy2 (GeneID 217473)	5	2.19 (active)	1.35	3.96	0.43
54	Ankmy2 (GeneID 217473)	6	-3.06 (active)	1.35	-2.87	-3.26
55	Raf1 (GeneID 110157)	1	1.29	-2.63	1.08	1.51
56	Raf1 (GeneID 110157)	2	-2.63 (active)	-2.63	-2.84	-2.42
57	Raf1 (GeneID 110157)	3	-3.81 (active)	-2.63	-3.59	-4.04
58	Raf1 (GeneID 110157)	4	0.627	-1.35	1.31	-0.0587
59	Raf1 (GeneID 110157)	5	-1.35	-1.35	-1.25	-1.44
60	Raf1 (GeneID 110157)	6	-3.37 (active)	-1.35	-3.22	-3.52
